Measurements published in paper PMC4191963, “DNA Binding Properties of the Actin-Related Protein Arp8 and Its Role in DNA Repair” (PLoS ONE, 2014).

Amino acid sequences for entries named in this document (tags omitted).
UniProt Q9H981, whole entry: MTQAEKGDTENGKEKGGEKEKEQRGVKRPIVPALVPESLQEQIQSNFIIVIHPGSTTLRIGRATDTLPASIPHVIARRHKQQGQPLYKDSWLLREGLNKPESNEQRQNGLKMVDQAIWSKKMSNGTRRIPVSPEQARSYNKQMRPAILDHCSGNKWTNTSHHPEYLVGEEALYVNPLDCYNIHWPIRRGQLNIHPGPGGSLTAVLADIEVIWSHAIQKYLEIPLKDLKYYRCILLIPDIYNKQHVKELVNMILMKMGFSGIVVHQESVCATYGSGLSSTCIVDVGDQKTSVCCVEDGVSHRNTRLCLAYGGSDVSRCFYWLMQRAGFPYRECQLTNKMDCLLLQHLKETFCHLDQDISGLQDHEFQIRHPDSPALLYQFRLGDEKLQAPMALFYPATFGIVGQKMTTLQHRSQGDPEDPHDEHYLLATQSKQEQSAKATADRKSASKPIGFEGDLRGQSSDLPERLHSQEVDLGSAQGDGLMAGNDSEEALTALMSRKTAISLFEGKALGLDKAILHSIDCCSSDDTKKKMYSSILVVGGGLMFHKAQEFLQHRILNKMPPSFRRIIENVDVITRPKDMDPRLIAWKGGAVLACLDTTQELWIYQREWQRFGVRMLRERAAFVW

Target: Arp8 (Homo sapiens) (UniProt Q9H981)
Test: competition EMSA (PAGE)
Settings: 3 µM each of ssDNA, dsDNA, 3'-overhang, 250 mM NaCl, 20 mM HEPES-NaOH pH 7.5, 160 mM NaCl (250 mM in oligonucleotide competition), 1 mM MgCl2, 1 mM DTT, 0.1 mg/ml BSA, 8% glycerol (not listed for competition), recombinant protein, residues 1-624, protein details: His6 (N-terminal) removed by PreScission

| Sequence | binding result (lowest affinity) | binding result (intermediate affinity) |
| --- | --- | --- |
| CCTCGATCCTACCAACCAGATGACGCGCTGCTACGTGCTACCGGAAGTCG / CGACTTCCGGTAGCACGTAGCAGCGCGTCAACTGGTTGGTAGGATCGAGG [a3/a3-cp dsDNA] | binds more weakly |  |
| CCTCGATCCTACCAACCAGATGACGCGCTGCTACGTGCTACCGGAAGTCG / GCCTAGAGTGCAGTTCGTGGCGAGC [a3/c 3'-overhang DNA] |  | binds |

The comparison behind a weaker result is the experiment's own reference, which may not be listed here. For at least one entry, the source does not settle the construct or the ends of the probe.
